{"sequences": {"note": "Sequences of proteins named here, by UniProt entry; tags and fusion partners are left off. A change or cut given only in a name is not applied to a line headed by its entry.", "UniProt P18054": "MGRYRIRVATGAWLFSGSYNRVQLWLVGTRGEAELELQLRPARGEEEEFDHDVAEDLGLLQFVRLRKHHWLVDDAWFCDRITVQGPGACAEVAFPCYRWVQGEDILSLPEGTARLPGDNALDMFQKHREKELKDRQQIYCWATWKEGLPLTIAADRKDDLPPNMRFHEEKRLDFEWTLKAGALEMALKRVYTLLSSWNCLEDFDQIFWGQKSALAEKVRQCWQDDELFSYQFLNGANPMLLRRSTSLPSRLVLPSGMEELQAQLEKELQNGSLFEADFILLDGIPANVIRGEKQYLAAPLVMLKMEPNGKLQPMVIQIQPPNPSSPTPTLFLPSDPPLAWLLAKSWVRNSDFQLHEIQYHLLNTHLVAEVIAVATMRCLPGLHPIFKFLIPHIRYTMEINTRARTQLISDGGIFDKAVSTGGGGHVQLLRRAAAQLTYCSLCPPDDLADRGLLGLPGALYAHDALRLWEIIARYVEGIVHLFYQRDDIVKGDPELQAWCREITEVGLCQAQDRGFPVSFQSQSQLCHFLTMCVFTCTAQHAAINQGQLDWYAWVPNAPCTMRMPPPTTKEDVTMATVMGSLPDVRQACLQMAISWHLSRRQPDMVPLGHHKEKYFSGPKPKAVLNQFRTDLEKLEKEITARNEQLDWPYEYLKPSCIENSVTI"}, "source": "PubChem BioAssay AID1671190", "about": "(National Center for Advancing Translational Sciences (NCATS), 2021)", "note": "In all, about 580,000 compounds went through this assay and about 6,100 (1.1%) were called active. The shares of active, inactive and inconclusive entries below differ from those in the screen. Calls follow the shape of the dose curve; as a rule, active = well fitted inhibition curve with a large enough effect; inconclusive = small, poorly fitted or top-dose-only effect, or another doubt; inactive = no such curve, though single readings can be large or run the other way. Potencies of inconclusive entries are doubtful fits and often do not repeat. Potency is read from the fitted curve at half-maximal effect."}
{"target": "Polyunsaturated fatty acid lipoxygenase ALOX12 (Homo sapiens) (UniProt P18054)", "test": "Primary qHTS assay for inhibitors of human arachidonate 12S-lipoxygenase (ALOX12): Round 2", "conditions": "purified 12hLO, xylenol orange hydroperoxide absorbance; series mostly up to 108 µM", "in_short": "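Purified human 12hLO (150 nM final) in 25 mM Hepes, 0.01% Triton X-100, pH 7.0 was preincubated 15 min at room temperature with compound. Then 40 uM arachidonic acid was added, 30 min. Hydroperoxide was read by Fe-XO absorbance ratio 573/405 nm.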"}
{"smiles": "Cc1ccc(C2C(C#N)=C(N)OC3=C2C(=O)CC(C)(C)C3)cc1", "note": "(stereo not drawn)", "Potency": "inconclusive: 39.8 µM [inhibitor, partial curve]"}
{"smiles": "CC(C)(C)N1Cc2nnn(Cc3ccccc3)c2-c2cc(N3CCCC3)ccc2S1(=O)=O", "Potency": "inactive"}
{"smiles": "O=Cc1c2c(cc3ccc(Cl)cc13)CCC2", "Potency": "inactive"}
{"smiles": "C[C@@H]1C[C@H](O)c2cc(Cl)ccc2N1", "Potency": "inconclusive: 22.4 µM [inhibitor, single point]"}
{"smiles": "O=C(NCCc1ccccc1)c1n[nH]c(=O)c2ccccc12", "Potency": "inconclusive: 158 µM [inhibitor, partial curve, poor fit]"}
{"smiles": "CNC(=O)c1cc(NC(=O)CCn2nc(-c3ccc(Cl)cc3)c3ccccc3c2=O)ccc1OC", "Potency": "inactive"}
{"smiles": "CCN(CC(=O)NCc1cccs1)C(=O)c1cc(=O)[nH]c2ccccc12", "Potency": "inactive"}
{"smiles": "COc1ccc(OC)c(Nc2nc(NCc3ccco3)c3ccccc3n2)c1", "Potency": "inconclusive: 44.7 µM [inhibitor, partial curve, poor fit]"}
{"smiles": "CC(=O)N1CCN(c2ncnc3c2CN(c2ccccc2C)C(=O)CN3C)CC1", "Potency": "inactive"}
{"smiles": "CCOC(=O)c1c(N)sc(C(C)=O)c1C", "Potency": "inconclusive: 50.1 µM [inhibitor, partial curve, poor fit]"}
{"smiles": "CC(=O)Nc1ccc(-c2csc(NC3CCCC3)n2)c(F)c1", "Potency": "inconclusive: 31.6 µM [inhibitor, partial curve]"}
{"smiles": "COc1ccc(N=C2NN=C(c3c(C)[nH]c4ccccc34)CS2)cc1", "Potency": "inconclusive: 50.1 µM [inhibitor, partial curve, poor fit]"}
{"smiles": "CCN(CCNC(=O)Nc1ccc(Cl)cc1)c1ccccc1", "Potency": "inconclusive: 3.98 µM [inhibitor, full curve, poor fit]"}
{"smiles": "Cc1ccc2c(=O)cc(C(=O)N(Cc3ccc(N(C)C)cc3)C3CCS(=O)(=O)C3)oc2c1", "note": "(stereo not drawn)", "Potency": "inactive"}
{"smiles": "CC(C)(C)c1ccc(-c2cc(C(=O)O)c3cc(Br)ccc3n2)cc1", "Potency": "inconclusive: 0.501 µM [inhibitor, full curve, poor fit]"}
{"smiles": "COc1ccc2c(c1)c(C(C(=O)O)N1CCC(Cc3ccccc3)CC1)cn2CC(=O)O", "note": "(stereo not drawn)", "Potency": "inconclusive: 20 µM [inhibitor, partial curve, poor fit]"}
{"smiles": "CC1CC(C)(C)NC(=S)S1", "note": "(stereo not drawn)", "Potency": "inconclusive: 35.5 µM [inhibitor, single point]"}
{"smiles": "O=C(O)c1cc(N/N=C/C=C/c2ccccc2[N+](=O)[O-])ccc1Cl", "Potency": "inconclusive: 44.7 µM [inhibitor, partial curve, poor fit]"}
{"smiles": "Cc1cc(S(=O)(=O)c2ccc(Cl)cc2)nc(S(=O)(=O)c2ccc(Cl)cc2)c1C#N", "Potency": "inconclusive: 50.1 µM [inhibitor, partial curve, poor fit]"}
{"smiles": "CCOc1cc(C(c2c(C)[nH][nH]c2=O)c2c(C)[nH][nH]c2=O)ccc1OCc1ccc([N+](=O)[O-])cc1", "Potency": "inconclusive: 44.7 µM [inhibitor, partial curve, poor fit]"}
{"smiles": "N=c1n(CCN2CCCCC2)c2ccccc2n1CC(O)COc1ccc(Cl)cc1Cl", "note": "(stereo not drawn)", "Potency": "inconclusive: 126 µM [inhibitor, partial curve, poor fit]"}
{"smiles": "CC(=O)Oc1ccc(OC(C)=O)c2c1CC(C)=C(C)C2", "Potency": "inactive"}
{"smiles": "CC(OC(=O)c1ccc(CCNS(C)(=O)=O)cc1)C(=O)N1CCOCC1", "note": "(stereo not drawn)", "Potency": "inconclusive: 126 µM [inhibitor, single point]"}
{"smiles": "CC(NC(=O)COC(=O)C1CCC1)c1ccccc1", "note": "(stereo not drawn)", "Potency": "inconclusive: 2.82 µM [inhibitor, single point]"}
{"smiles": "Cn1ccnc1SC(C(=O)O)c1ccccc1", "note": "(stereo not drawn)", "Potency": "inconclusive: 7.08 µM [inhibitor, full curve, poor fit]"}
{"smiles": "CC1(C)c2[nH]c3ccccc3c2C[C@@H]2C(=O)N(Cc3ccccc3)C(=O)N21", "Potency": "inconclusive: 100 µM [inhibitor, single point]"}
{"smiles": "CCN(CC)CCn1c(NCc2cccc(OC)c2OC)nc2ccccc21", "Potency": "inconclusive: 63.1 µM [inhibitor, partial curve, poor fit]"}
{"smiles": "Cc1cnc(C(=O)OCC(=O)c2ccc3ccccc3c2)cn1", "Potency": "inactive"}
{"smiles": "O=C(Nc1ccc(Oc2ccccc2)cc1)c1ccoc1", "Potency": "inconclusive: 79.4 µM [inhibitor, partial curve, poor fit]"}
{"smiles": "O=[N+]([O-])c1ccc(-c2csc(N/N=C/c3cccnc3)n2)cc1", "Potency": "inconclusive: 35.5 µM [inhibitor, single point]"}
{"smiles": "COc1ccccc1CN1C(=O)CN(C2CCCCCC2)C(=O)C1c1ccc(C)cc1", "note": "(stereo not drawn)", "Potency": "inactive"}
{"smiles": "Cc1ccc(NC(=O)CN2C(=O)NC(c3ccc(Cl)cc3)C3=C2COC3=O)cc1", "note": "(stereo not drawn)", "Potency": "active: 11.2 µM"}
{"smiles": "CCCCn1cc(S(=O)(=O)c2ccc(OCC)cc2)c(=O)c2cc(C)ccc21", "Potency": "inconclusive: 28.2 µM [inhibitor, partial curve]"}
{"smiles": "C=CCNC(=O)/C(=C/c1cccc([N+](=O)[O-])c1)NC(=O)c1ccccc1", "Potency": "inactive"}
{"smiles": "O=S1(=O)CC(N2CCCC2)CN1Cc1cn(Cc2ccccc2)nn1", "note": "(stereo not drawn)", "Potency": "inactive"}
{"smiles": "O=c1c2ccccc2sn1-c1ccc(Cl)cc1Cl", "Potency": "inactive"}
{"smiles": "CCCc1cc(=O)oc2cc(OC(C)C(=O)Nc3cc(C)on3)ccc12", "note": "(stereo not drawn)", "Potency": "inactive"}
{"smiles": "Cc1ccc(-c2nc(CSc3nc4ncccc4[nH]3)c(C)o2)c(C)c1", "Potency": "inconclusive: 35.5 µM [inhibitor, partial curve, poor fit]"}
{"smiles": "CCCCCCCSc1nc2c(c(=O)[nH]c(=O)n2C)n1CCC", "Potency": "inconclusive: 25.1 µM [inhibitor, partial curve]"}
{"smiles": "CCCCC(=Nc1ccc(N)cc1)C1=C(O)C(C(=O)OC)C(C)(C)CC1=O", "note": "(stereo not drawn)", "Potency": "inconclusive: 100 µM [inhibitor, single point]"}
{"smiles": "Oc1ccc(Cl)cc1/C=C/c1ccc2cccc(O)c2n1", "Potency": "inconclusive: 44.7 µM [inhibitor, partial curve, poor fit]"}
{"smiles": "Cc1oc(-c2ccccc2)nc1C(=O)N1CCN(C)CC1c1ccccc1", "note": "(stereo not drawn)", "Potency": "inactive"}
{"smiles": "CCN(c1ccccc1)c1nnc(NC(=O)Nc2cc(Cl)ccc2OC)s1", "Potency": "inactive"}
{"smiles": "COc1ccccc1N1CCN(Cc2nc3ccsc3c(=O)[nH]2)CC1", "Potency": "inconclusive: 5.62 µM [inhibitor, full curve, poor fit]"}
{"smiles": "Cc1ccc(C(=O)COC(=O)CCc2c[nH]c3ccccc23)c(C)c1", "Potency": "inactive"}
{"smiles": "Cc1nc(C)c(C(=O)N2CCc3onc(-c4cccc(F)c4)c3C2)s1", "Potency": "inactive"}
{"smiles": "COc1cc(Cl)cc(/C=N\\NC(=O)c2ccc3c(c2)OCO3)c1O", "Potency": "inconclusive: 44.7 µM [inhibitor, partial curve, poor fit]"}
{"smiles": "Cc1nn(CC(=O)NC(C)c2ccccc2)c(=O)c2nc(C(C)C)sc12", "note": "(stereo not drawn)", "Potency": "inactive"}
{"smiles": "COc1ccc(Cl)cc1N1C(=O)/C(=C\\c2sccc2C)N=C1SCC(=O)NC1CC1", "Potency": "inconclusive: 1 µM [inhibitor, full curve, poor fit]"}
{"smiles": "COCCNc1ccc2nnc(-c3ccccn3)n2n1", "Potency": "inconclusive: 8.91 µM [inhibitor, full curve]"}
{"smiles": "CCC1(C)Cc2c(sc3nc(NN)n(C)c(=O)c23)CO1", "note": "(stereo not drawn)", "Potency": "inconclusive: 7.94 µM [inhibitor, partial curve]"}
{"smiles": "CC(CC(=O)Nc1ccc(F)cc1)(C(=O)O)c1ccccc1", "note": "(stereo not drawn)", "Potency": "inactive"}
{"smiles": "NCCCC(=O)N1CCC2(CC1)CN([S+](=O)([O-])c1ccccc1)CCO2", "Potency": "inconclusive: 1.8 µM [inhibitor, partial curve]"}
{"smiles": "O=C(O)c1[nH]c2ccc(Cl)cc2c1CC(=O)N1CCN(c2ccccc2)CC1", "Potency": "inconclusive: 0.631 µM [inhibitor, full curve, poor fit]"}
{"smiles": "CC(=O)c1cccc(NC(=S)Nc2ccn(Cc3cccc4ccccc34)n2)c1", "Potency": "inconclusive: 7.08 µM [inhibitor, full curve, poor fit]"}
{"smiles": "COc1ccc(O)c(CN2CCCC(Nc3ccc(F)cc3)C2)c1", "note": "(stereo not drawn)", "Potency": "inconclusive: 50.1 µM [inhibitor, partial curve, poor fit]"}
{"smiles": "O=c1[nH]c2c(s1)C(c1ccc(O)cc1)C1C3CCC(C3)C1S2", "note": "(stereo not drawn)", "Potency": "active: 44.7 µM"}
{"smiles": "COc1ccc(C(=O)N/C(=C/c2ccccc2F)C(=O)NCCN2CCOCC2)cc1OC", "Potency": "inactive"}
{"smiles": "CNc1nc2c(s1)C(c1ccccc1F)CC(=O)N2", "note": "(stereo not drawn)", "Potency": "inconclusive: 8.91 µM [inhibitor, full curve]"}
{"smiles": "COc1cccc(-c2nc(CS(=O)(=O)CC(=O)Nc3c(C)cc(C)cc3C)c(C)o2)c1", "Potency": "inactive"}
{"smiles": "C/C(=N/Nc1ccc(S(=O)(=O)Nc2ccc(Cl)cc2)cc1[N+](=O)[O-])c1ccco1", "Potency": "inconclusive: 7.08 µM [inhibitor, full curve, poor fit]"}
{"smiles": "O=C(NC1CC(=O)N(c2ccc(Cl)cc2)C1)c1ccc2c(c1)OCO2", "note": "(stereo not drawn)", "Potency": "inconclusive: 100 µM [inhibitor, partial curve, poor fit]"}
{"smiles": "CCN(CC)c1ccc(C(=O)NCc2nnc3cc(-c4nc(C5CC5)no4)ccn23)cc1", "Potency": "inconclusive: 79.4 µM [inhibitor, partial curve, poor fit]"}
{"smiles": "COc1ccc(-c2cc(COC(=O)Cc3cccc(F)c3)on2)cc1", "Potency": "inconclusive: 0.251 µM [inhibitor, full curve, poor fit]"}
{"smiles": "CCN(CC)c1nc(N)n(CCSC(=S)N(C)C)c(=O)n1", "Potency": "inconclusive: 39.8 µM [inhibitor, partial curve, poor fit]"}
{"smiles": "CCCCn1c(=O)n(CC(=O)Nc2ccc3c(c2)CCC3)c(=O)c2c1ncn2Cc1ccco1", "Potency": "inactive"}
{"smiles": "CCOc1ccc(-n2c(SCC(=O)Nc3ccc(CC)cc3)nc3[nH]ncc3c2=O)cc1", "Potency": "inactive"}
{"smiles": "CCc1ccc2c(c1)cc(S(=O)(=O)c1ccccc1)c(=O)n2CC(=O)N1CCCCC1", "Potency": "inconclusive: 7.94 µM [inhibitor, full curve, poor fit]"}
